This is an account of results in patent US20130129763A1 (ARNE FORSGREN, published 2013).

Sequences of proteins named here, by UniProt entry; tags and fusion partners are left off. Residues count along the entry.
UniProt P19137, 25-3083 limits assumed, chain 1 of 3: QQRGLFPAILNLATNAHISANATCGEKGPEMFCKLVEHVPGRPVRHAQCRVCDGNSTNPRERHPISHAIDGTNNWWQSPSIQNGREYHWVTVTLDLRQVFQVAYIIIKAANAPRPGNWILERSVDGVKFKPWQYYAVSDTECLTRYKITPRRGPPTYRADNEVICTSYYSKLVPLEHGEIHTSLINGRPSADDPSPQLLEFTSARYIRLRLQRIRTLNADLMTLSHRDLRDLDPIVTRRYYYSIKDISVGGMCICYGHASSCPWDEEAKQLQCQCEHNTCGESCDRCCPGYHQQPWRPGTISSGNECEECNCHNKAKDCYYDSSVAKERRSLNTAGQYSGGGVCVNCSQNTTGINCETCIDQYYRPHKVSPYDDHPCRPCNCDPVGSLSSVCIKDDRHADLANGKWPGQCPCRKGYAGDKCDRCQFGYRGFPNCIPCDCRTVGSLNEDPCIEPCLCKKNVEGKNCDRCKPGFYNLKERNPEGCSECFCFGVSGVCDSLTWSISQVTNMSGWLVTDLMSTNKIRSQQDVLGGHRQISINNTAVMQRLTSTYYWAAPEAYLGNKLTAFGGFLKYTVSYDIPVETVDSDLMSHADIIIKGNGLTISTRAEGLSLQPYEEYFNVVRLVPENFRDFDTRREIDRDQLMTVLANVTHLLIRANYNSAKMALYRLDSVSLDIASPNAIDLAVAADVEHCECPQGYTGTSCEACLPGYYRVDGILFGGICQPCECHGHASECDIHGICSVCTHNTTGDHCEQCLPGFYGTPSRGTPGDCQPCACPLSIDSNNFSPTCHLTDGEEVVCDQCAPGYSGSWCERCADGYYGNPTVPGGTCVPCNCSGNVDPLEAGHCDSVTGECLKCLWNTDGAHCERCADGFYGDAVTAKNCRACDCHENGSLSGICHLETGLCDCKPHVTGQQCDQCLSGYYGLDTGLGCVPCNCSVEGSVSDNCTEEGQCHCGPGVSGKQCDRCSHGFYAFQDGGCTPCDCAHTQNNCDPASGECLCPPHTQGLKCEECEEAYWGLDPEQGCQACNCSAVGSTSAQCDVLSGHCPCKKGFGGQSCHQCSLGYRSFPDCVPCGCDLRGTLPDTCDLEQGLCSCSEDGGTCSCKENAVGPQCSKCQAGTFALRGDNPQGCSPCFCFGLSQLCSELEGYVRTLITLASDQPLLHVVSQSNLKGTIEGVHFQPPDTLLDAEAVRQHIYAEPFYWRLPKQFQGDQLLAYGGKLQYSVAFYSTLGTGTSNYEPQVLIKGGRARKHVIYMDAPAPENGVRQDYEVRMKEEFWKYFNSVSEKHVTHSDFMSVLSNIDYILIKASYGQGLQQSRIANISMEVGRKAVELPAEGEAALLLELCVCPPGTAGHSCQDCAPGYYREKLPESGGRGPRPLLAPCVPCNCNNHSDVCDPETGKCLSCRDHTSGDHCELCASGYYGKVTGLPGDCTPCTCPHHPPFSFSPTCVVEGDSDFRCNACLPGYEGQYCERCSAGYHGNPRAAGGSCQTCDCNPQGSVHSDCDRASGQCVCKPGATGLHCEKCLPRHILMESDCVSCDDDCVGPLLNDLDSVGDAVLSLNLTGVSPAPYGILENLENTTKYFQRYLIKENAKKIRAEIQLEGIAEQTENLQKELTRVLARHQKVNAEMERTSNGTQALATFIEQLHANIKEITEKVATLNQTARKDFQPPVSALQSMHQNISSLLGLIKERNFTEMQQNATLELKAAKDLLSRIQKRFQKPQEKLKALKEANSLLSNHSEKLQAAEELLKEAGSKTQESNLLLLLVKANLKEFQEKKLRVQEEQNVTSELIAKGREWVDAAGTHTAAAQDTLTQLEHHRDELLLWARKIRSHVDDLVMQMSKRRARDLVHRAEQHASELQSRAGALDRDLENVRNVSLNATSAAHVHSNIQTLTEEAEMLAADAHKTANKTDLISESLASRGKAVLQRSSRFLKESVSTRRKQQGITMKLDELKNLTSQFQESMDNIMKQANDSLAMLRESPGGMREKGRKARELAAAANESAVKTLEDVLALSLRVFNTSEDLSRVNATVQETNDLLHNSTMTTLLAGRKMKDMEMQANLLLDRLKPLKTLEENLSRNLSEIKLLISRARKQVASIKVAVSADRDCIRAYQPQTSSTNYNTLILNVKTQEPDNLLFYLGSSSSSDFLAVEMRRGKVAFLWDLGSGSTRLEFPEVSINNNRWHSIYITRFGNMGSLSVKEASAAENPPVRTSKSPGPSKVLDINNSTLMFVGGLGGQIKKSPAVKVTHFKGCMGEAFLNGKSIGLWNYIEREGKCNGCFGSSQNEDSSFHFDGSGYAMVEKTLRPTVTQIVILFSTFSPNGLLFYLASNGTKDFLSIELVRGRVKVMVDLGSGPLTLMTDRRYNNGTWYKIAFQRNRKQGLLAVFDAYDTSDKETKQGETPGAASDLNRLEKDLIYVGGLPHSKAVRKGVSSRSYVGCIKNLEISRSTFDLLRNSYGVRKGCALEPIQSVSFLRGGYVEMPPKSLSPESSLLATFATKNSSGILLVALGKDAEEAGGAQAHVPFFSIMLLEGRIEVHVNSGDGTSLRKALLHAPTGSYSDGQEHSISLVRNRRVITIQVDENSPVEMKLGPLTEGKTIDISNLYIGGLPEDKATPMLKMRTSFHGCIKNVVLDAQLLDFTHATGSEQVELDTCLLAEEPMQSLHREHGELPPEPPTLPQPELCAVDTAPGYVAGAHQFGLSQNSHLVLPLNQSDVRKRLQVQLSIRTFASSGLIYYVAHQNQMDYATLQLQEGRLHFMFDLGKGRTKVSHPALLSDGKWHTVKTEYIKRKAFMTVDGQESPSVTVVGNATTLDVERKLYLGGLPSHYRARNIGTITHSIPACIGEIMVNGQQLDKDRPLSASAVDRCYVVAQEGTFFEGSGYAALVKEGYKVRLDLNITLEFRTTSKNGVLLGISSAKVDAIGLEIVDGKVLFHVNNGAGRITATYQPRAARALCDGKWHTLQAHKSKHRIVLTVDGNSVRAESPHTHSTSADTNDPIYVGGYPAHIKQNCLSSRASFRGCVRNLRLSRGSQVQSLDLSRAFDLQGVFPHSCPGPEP
Engelbreth-Holm-Swarm mouse sarcoma laminin (Sigma), UniProt P02469, 22-1786 limits assumed, chain 2 of 3: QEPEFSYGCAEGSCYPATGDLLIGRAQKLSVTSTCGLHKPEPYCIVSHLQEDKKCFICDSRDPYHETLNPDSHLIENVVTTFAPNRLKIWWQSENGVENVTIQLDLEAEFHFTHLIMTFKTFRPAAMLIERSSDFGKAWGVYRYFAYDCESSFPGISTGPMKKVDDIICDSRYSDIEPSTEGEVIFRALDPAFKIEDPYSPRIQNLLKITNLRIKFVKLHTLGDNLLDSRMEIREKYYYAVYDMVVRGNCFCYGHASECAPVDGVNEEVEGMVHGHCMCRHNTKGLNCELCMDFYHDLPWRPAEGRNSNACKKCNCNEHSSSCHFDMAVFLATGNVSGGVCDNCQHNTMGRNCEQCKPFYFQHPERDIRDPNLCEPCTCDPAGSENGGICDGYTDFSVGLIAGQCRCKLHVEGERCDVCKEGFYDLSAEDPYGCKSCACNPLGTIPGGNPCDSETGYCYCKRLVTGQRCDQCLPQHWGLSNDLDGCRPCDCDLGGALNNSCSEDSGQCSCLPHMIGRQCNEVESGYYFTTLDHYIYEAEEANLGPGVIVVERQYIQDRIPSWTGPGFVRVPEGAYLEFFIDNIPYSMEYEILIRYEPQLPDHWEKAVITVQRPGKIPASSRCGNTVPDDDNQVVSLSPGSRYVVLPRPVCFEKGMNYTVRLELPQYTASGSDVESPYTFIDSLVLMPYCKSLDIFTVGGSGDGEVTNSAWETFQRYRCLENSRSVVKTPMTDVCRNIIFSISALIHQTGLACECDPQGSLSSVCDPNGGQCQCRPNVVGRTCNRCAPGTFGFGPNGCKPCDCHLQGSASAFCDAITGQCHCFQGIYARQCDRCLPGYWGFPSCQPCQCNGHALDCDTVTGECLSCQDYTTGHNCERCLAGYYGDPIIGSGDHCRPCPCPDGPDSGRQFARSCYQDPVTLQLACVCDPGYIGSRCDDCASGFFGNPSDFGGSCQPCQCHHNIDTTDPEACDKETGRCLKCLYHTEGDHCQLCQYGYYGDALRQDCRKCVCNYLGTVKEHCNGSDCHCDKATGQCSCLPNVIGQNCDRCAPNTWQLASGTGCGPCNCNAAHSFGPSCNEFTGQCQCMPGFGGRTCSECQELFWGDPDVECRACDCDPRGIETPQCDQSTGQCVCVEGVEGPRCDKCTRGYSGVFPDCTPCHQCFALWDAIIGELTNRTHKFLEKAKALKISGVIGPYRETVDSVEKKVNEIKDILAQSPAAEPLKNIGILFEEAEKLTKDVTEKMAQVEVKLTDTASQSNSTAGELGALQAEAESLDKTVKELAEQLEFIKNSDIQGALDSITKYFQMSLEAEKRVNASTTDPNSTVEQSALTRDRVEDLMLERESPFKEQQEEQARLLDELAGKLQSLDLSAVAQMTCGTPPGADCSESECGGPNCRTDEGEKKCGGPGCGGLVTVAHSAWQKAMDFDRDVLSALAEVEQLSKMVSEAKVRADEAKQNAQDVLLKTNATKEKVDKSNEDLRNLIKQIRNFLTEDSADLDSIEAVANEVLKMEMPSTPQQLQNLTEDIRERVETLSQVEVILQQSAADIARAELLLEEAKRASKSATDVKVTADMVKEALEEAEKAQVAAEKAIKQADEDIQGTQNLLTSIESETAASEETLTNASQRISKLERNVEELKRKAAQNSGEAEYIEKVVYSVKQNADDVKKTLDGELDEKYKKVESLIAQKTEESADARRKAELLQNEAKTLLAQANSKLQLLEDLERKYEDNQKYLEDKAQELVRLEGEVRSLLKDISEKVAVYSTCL
Engelbreth-Holm-Swarm mouse sarcoma laminin (Sigma), UniProt P02468, 34-1607 limits assumed, chain 3 of 3: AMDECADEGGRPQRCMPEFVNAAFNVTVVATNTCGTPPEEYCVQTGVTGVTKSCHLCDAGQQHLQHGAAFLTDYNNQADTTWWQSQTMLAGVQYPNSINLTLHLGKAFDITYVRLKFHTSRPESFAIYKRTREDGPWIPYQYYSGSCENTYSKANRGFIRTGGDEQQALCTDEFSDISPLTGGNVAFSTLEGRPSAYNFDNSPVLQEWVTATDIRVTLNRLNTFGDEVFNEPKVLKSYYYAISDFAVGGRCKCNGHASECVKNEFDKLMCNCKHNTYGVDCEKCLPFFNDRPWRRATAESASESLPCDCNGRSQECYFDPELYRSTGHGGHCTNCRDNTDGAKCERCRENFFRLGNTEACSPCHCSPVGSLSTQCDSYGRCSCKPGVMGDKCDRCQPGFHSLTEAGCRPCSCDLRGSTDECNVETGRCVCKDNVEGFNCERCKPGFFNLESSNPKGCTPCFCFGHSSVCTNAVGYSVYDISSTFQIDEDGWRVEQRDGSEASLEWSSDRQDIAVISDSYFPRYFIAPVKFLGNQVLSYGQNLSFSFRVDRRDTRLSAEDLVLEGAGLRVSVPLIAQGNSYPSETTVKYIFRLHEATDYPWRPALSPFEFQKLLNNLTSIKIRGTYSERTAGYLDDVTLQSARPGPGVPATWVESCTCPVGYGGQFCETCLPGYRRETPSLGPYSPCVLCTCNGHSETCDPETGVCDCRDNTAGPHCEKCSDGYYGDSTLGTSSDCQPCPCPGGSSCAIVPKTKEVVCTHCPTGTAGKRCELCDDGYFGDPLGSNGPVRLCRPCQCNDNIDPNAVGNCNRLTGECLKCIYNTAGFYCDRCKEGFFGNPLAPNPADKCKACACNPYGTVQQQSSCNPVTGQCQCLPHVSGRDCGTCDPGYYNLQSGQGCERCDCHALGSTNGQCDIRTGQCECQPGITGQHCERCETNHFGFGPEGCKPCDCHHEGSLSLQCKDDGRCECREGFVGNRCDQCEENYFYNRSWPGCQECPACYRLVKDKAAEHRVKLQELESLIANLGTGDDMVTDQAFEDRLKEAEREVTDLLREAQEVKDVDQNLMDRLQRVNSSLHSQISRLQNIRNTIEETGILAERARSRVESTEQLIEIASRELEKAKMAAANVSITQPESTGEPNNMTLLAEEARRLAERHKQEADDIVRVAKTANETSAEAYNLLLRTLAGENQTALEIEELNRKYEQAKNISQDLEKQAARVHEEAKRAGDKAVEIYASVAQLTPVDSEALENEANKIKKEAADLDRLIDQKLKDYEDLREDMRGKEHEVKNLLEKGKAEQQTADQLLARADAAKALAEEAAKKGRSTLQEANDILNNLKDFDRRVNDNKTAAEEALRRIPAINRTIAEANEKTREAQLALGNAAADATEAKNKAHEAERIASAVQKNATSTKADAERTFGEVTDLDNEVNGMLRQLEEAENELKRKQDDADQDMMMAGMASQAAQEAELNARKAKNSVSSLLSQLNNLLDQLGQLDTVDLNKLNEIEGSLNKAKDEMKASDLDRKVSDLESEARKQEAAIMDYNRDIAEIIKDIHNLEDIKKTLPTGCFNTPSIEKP

The assay concerns the target T1, Engelbreth-Holm-Swarm mouse sarcoma laminin (Sigma) (mouse, UniProt P19137 25-3083; P02469 22-1786; P02468 34-1607).
T1 construct: also called soluble laminin
As to the kind of experiment: ELISA: 40 nM protein coated, laminin 20 µg/ml, rabbit anti-laminin pAb + HRP anti-rabbit pAb. In general terms: ELISA stands for enzyme-linked immunosorbent assay.

B1: recombinant UspA1^299-452 (other)
chain: KTGNGTVSVGKKGKERQIVHVGAGEISDTSTDAVNGSQLHVLATVVAQNKADIKDLDDEVGLLGEEINSLEGEIFNNQDAIAKNQADIKTLESNVEEGLLDLSGRLLDQKADIDNNINNIYELAQQQDQHSSDIKTLKNNVEEGLLDLSGRLID
For the molecule B1, the binding result was “no binding”.
